Laboratory results published in patent US7390836B2, “Small molecules used to increase cell death” (priority 1999, dated 2008).
Some entries share one result that the patent states for a list of compounds. Some compounds share one range, which may span the group rather than tell each member.

Legend:
[1] = molecular target: Bak BH3 peptide / Bcl-xL (Bcl-xL/GST, Bcl-xL-His6) interaction; assay: Fluorescence polarization assay, labeled Bak BH3 peptide binding to Bcl-xL fusion protein; settings: secondary screen, serial dilution
Text: We have used a fluorescence polarization assay to screen a library of 16,000 chemical compounds (ChemBridge, San Diego, Calif.) to identify small molecules that inhibit the interaction between a peptide corresponding to the BH3 domain of a pro-apoptotic protein and a recombinant Bcl-xL/GST fusion protein. In this assay, an […] peptide corresponding to the BH3 domain of Bak was used. The Bak peptide was labeled with a fluorescent tag, such as OREGON GREEN. Upon binding of the tagged peptide to the Bcl-xL/GST fusion protein, the polarization of light emitted by the tagged peptide is altered. […] Conversely, in a sample in which a compound does inhibit the interaction between the Bak peptide and the Bcl-xL/GST fusion protein the polarization of light emitted by the peptide will not be altered.
A nineteen amino acid Bak peptide, corresponding to the BH3 domain of Bak, with the sequence […] (SEQ ID NO: 2) was labeled with the fluorophore OREGON GREEN according to the manufacturer's instructions (Molecular Probes, Eugene, Oreg.). […]
A screen of approximately 16,000 compounds from the ChemBridge chemical compound library was conducted to identify compounds that disrupt the interaction between the Bak peptide and the Bcl-xL/GST fusion protein. The ability of a compound to disrupt the interaction between the two polypeptides was assessed using a fluorescence polarization assay. […]
In a preferred method, the fluorescence assay was carried out as follows. […] The plates were incubated for 1-2 hr at 25° C., and the fluorescence polarization assay values were determined using an Analyst plate reader (LJL Biosystems). Reactions containing 16.65 nM of labeled BH3 peptide and 4.2 μM of Bcl-xL-His6 fusion protein, which was previously utilized to characterize BH3/Bcl-xL binding (Sattler et al., Science 275:983-6, 1997) were used for the further fluorescence polarization analyses. […]
In a further screen, various concentrations of each of the above-identified compounds were evaluated for their potency. […]

HeLa cells = assay: Cell death by cellular ATP levels; assay type: cell-based; settings: 48 hours
Procedure: (§1) HeLa cells, U-937 cells, or Jurkat cells, each of which endogenously express both Bak and Bcl-xL, were contacted with each of the BH3I chemical compounds identified above, by adding the compound to the cell culture media. Forty-eight hours after the cells received the chemical compound the cell culture sample was evaluated for the level of cell death that had occurred in response to the chemical compound. The level of cell death was determined by measuring cellular ATP levels, wherein a decrease in cellular ATP levels indicated an increase in cell death. In each cell line, cell death was increased in the sample that received one of the above-identified compounds.

Jurkat cells = assay: Cell death by cellular ATP levels; assay type: cell-based; settings: 48 hours
Procedure: as §1

U-937 cells = assay: Cell death by cellular ATP levels; assay type: cell-based; settings: 48 hours
Procedure: as §1

Row | Compound | Ki [1] [µM] | GI50 (HeLa cells) [µM] | GI50 (Jurkat cells) [µM] | GI50 (U-937 cells) [µM]
1 | CC(C)C(C(=O)O)N1C(=O)C(=Cc2ccc(Br)cc2)SC1=S (stereo in doubt) [BH3I-1] | 10 to 20 | 50 to 70 | 50 to 70 | 50 to 70
2 | CC(C)C(C(=O)O)N1C(=O)/C(=C/c2ccc(Cl)cc2)SC1=S (stereo not drawn) [BH3I-1′] | 10 to 20 | 50 to 70 | 50 to 70 | 50 to 70
3 | O=C(Nc1cc(S(=O)(=O)c2ccc(Cl)cc2)ccc1Cl)c1cc(Cl)cc(Br)c1O [BH3I-2] | 10 to 20 | – | – | –
